The campaign covered roughly 290,000 compounds. About 570 (0.2%) were called active. This list was built around the results that the source calls inconclusive (neither active nor inactive); the mix of calls is not that of the screen. Rule as the data show it: active = inhibition mostly above about 51% (no sharp cut-off); inconclusive = no clear call, values can overlap the other calls; inactive = mostly below about 53%.
molecular target: Voltage-dependent N-type calcium channel subunit alpha-1B (Homo sapiens) (UniProt Q00975); test: disruptors of CaV2.2 binding to Mint1 – biochemical, HTRF (AID 2073); details: HTRF protein-protein interaction, Mint1-CaV2.2; at 20 µM; hits give high values

Sequences of proteins named here, by UniProt entry; tags and fusion partners are left off.
UniProt Q00975, whole entry, looked up: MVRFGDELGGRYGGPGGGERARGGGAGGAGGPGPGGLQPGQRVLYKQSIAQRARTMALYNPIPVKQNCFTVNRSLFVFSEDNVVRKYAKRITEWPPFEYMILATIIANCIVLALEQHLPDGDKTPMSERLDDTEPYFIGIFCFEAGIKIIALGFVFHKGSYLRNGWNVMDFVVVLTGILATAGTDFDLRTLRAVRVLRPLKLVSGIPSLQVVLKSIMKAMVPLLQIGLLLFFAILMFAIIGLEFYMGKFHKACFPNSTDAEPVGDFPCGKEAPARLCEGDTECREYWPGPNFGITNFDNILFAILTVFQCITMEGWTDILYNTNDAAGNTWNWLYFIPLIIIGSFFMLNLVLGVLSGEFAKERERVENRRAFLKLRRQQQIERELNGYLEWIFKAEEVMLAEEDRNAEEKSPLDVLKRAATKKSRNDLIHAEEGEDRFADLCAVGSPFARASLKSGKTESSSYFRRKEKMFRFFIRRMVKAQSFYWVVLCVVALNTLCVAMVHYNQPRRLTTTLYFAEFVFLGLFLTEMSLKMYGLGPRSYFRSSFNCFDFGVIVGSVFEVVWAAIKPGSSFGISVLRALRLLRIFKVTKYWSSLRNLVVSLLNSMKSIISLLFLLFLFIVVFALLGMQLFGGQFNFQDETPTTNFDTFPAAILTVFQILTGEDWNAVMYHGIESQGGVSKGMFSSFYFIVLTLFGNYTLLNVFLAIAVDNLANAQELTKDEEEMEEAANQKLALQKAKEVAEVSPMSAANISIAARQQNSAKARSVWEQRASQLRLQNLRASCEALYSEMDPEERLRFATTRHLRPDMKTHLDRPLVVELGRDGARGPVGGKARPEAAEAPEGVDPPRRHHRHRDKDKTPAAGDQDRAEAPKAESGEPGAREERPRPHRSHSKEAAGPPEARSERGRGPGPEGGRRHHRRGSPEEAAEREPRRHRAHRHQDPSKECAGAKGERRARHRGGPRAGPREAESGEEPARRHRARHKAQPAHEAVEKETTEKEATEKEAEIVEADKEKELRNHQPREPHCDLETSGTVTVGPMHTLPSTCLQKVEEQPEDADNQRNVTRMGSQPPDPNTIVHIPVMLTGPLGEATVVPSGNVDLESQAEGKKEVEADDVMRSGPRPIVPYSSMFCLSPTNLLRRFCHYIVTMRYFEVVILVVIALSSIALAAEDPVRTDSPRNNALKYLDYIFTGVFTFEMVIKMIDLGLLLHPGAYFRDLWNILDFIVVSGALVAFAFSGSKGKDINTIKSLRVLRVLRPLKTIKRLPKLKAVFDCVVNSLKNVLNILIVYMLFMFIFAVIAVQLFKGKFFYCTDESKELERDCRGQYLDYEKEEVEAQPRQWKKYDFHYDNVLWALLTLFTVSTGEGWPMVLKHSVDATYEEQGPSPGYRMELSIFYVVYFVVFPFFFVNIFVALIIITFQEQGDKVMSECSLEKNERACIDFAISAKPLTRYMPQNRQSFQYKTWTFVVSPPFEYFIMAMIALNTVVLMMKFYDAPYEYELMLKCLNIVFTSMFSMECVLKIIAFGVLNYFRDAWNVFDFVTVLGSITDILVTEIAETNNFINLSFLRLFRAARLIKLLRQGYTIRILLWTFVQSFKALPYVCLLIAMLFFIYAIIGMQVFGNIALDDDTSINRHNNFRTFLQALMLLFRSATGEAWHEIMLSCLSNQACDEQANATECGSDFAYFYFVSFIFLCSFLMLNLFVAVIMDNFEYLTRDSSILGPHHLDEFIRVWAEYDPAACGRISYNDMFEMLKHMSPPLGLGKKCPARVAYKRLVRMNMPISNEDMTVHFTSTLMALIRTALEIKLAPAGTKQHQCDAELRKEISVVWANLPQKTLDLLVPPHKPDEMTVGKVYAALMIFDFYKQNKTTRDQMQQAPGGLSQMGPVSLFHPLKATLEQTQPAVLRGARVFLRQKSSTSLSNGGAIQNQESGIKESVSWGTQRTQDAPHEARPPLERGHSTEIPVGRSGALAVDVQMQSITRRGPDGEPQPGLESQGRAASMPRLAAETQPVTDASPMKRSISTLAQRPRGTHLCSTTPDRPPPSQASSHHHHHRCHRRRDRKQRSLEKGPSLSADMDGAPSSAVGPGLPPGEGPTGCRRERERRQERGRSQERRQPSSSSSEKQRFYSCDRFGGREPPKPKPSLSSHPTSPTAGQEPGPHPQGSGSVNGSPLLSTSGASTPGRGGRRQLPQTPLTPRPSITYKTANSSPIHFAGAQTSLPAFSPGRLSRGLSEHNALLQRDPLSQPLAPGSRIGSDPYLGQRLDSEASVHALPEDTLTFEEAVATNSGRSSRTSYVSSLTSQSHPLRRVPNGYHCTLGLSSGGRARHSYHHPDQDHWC

SMILES | inhibition
O=C(O)CCCC(=O)Nc1nncs1 | inconclusive: 61.3%
O=C(NCc1ccccc1Cl)C1CCC(CNc2nc(=S)[nH]c3ccccc23)CC1 (configuration not stated) | inconclusive: 50.1%
Cc1c(C(=O)NC2CCCc3ccccc32)oc2ccc(S(=O)(=O)N3CCCC3)cc12 (configuration not stated) | inconclusive: 52%
COc1ccc(C(=O)c2c(C)oc3ccc(O)cc23)cc1 | inconclusive: 50.8%
Cc1ccc(Cn2c(CN(C)Cc3ccccc3)nc3c2c(=O)n(C)c(=O)n3C)cc1 | inconclusive: 90.6%
CCC1Oc2ccc(C)cc2N(CC(=O)N(Cc2cccnc2)Cc2ccc(C)o2)C1=O (configuration not stated) | active: 52.5%
CCN(CCCNC(=O)CCCN1C(=O)COc2ccc(C)cc21)c1cccc(C)c1 | inconclusive: 85.1%
O=C(O)COc1c(-c2ccc(Cl)cc2)oc2ccccc2c1=O | inconclusive: 86.8%
Cc1ccc(NC(=O)C/C(N)=N/O)cc1C | inconclusive: 69.1%
Nc1ccnn1Cc1ccncc1 | inconclusive: 51.2%
COc1ccc(N(CC(=O)NCc2ccccc2)C(=O)CCC(=O)Nc2cc(C)ccn2)c(OC)c1 | inconclusive: 57.4%
Cc1ccc2cc(CN(CC3CCCO3)C(=O)c3cccs3)c(=O)[nH]c2c1 (configuration not stated) | inconclusive: 63.4%
CCn1c(=O)cc(OCC(=O)Nc2ccc3c(c2)OCCO3)c2ccccc21 | inactive: 21.8%
Cc1ccc(OCC(O)CN2CCN(CC(O)COc3ccc(C)cc3)CC2)cc1 (configuration not stated) | inconclusive: 60.3%
COc1ccccc1CNC(=O)CCSCc1cccc(Cl)c1 | inconclusive: 83.3%
COC(=O)CN(c1cc(OC)ccc1OC)S(=O)(=O)c1ccc(OC)c(OC)c1 | inconclusive: 63.6%
Cc1ccc(S(=O)(=O)N2CCN(C(=O)c3ccccn3)CC2)cc1 | inconclusive: 85%
O=S1(=O)C=C(SCc2ccccc2)Nc2ccccc21 | inconclusive: 72.9%
O=C(CSc1nnc(SCc2ccccc2)s1)N/N=C/C=C\c1ccco1 | inactive: 79.7%

Ordered by SMILES length (smallest number first): 3 of the compounds above.
SMILES | inhibition
Cc1ccc(NC(=O)C/C(N)=N/O)cc1C | inconclusive: 69.1%
O=C(NCc1ccccc1Cl)C1CCC(CNc2nc(=S)[nH]c3ccccc23)CC1 (configuration not stated) | inconclusive: 50.1%
Cc1ccc(Cn2c(CN(C)Cc3ccccc3)nc3c2c(=O)n(C)c(=O)n3C)cc1 | inconclusive: 90.6%

Continuation:

SMILES | inhibition
COc1ccccc1N1C(=O)C2C(C(=O)c3ccccc3)=NN(c3ccc(Br)cc3)C2C1=O (configuration not stated) | inconclusive: 54.2%
CC(C)OCCCNc1ncnc2c1cnn2-c1ccccc1 | inconclusive: 66.2%
O=C(Nc1ccccc1C(=O)N1CCOCC1)c1cccnc1 | inconclusive: 58.4%
COCc1[nH]nc2c1C(c1c(F)cccc1Cl)C(C#N)=C(N)O2 (configuration not stated) | inconclusive: 72.9%
CCOC(=O)CCCCCN1C(=O)c2cccc3cccc(c23)C1=O | inactive: -9.7%
Fc1cccc2sc(Nc3nnc(-c4ccccc4)o3)nc12 | inactive: 38.5%
CCn1nc(C)c(Br)c1-c1nc(-c2ccc(C)cc2)no1 | inconclusive: 54.8%
CC1CC(=O)c2c(cc3c(-c4c(O)cc(O)c5c(O)c6c(cc45)OC(C)CC6=O)c(O)cc(O)c3c2O)O1 (configuration not stated) | inconclusive: 78.3%
O=C1Nc2ccc(S(=O)(=O)NCC3CCCO3)c3cccc1c23 (configuration not stated) | inconclusive: 55.8%
COc1nccnc1NS(=O)(=O)c1ccc(NC(=O)c2ccccc2Br)cc1 | inconclusive: 70.6%
CC(C)c1nc(SCC(=O)NC(=O)NC(C)(C)C)n[nH]1 | inconclusive: 54.1%
CSc1nc(O)c(Nc2cccc(Cl)c2)c(=O)[nH]1 | inconclusive: 57.3%
CC(C)OCCCNC(=O)NC12CC3CC(CC(C3)C1)C2 | inconclusive: 65.6%
COc1cccc(/C=C(/CC(=O)Nc2ccc(N3CCOCC3)cc2)c2nc3ccccc3s2)c1 | active: 59.9%
Fc1ccc2nc(Nc3nc4c(F)cccc4s3)sc2c1 | inconclusive: 56%
Cc1ccc(NC(=O)N2N=C(c3ccc(F)cc3)CC2c2ccc(F)cc2)cc1 (configuration not stated) | inconclusive: 64.8%
COc1ccc(CNC(=O)CSc2nnc3nc(C)cc(C)n23)cc1OC | inconclusive: 76.4%
N#Cc1ccccc1Cn1c(=O)n(C2CCCC2)c(=O)c2ccccc21 | inconclusive: 52.5%
O=C(CNS(=O)(=O)c1ccc(F)cc1)Nc1ccccc1 | inconclusive: 60.6%

SMILES | inhibition
O=C(CSc1nnc(SCc2ccc(Cl)cc2)s1)N/N=C/c1c[nH]c2ccccc12 | inactive: 50.2%
CCOC(=O)C1=C(O)c2ccccc2C(=O)/C1=C\c1ccc(C)cc1 | inactive: 49.4%
COc1c(S(=O)(=O)NCCCn2ccnc2)ccc(Cl)c1Cl | inactive: -0.3%
COc1cc(N=Cc2c(O)c3ccccc3oc2=O)c(OC)cc1Cl | inconclusive: 76.5%
Cn1cc(-c2nnnn2-c2ccc(Cl)cc2)c(=O)c2ccccc21 | inconclusive: 78.9%
Oc1ccc(-c2csc(-c3cccnc3)n2)c(O)c1 | inconclusive: 59.2%
COC(=O)COc1cc(OCC(=O)OC)c2c(C)c(Cl)c(=O)oc2c1 | inconclusive: 51.8%
CCOC(=O)C1CCN(C(=O)Nc2ccc3nc(-c4ccco4)c(-c4ccco4)nc3c2)CC1 | active: 83.1%
O=S(=O)(Nc1ccc(-c2csc(-c3ccccc3)n2)cc1)c1ccc(F)cc1 | inconclusive: 53.7%
C/C(CC(=O)Nc1ccc2c(c1)OCCO2)=N\NC(=O)COc1ccccc1 | inactive: 1.2%
O=C(O)C1c2ccccc2C(=O)N(Cc2ccc(F)cc2)C1c1ccncc1 (configuration not stated) | inconclusive: 53.7%
CCOC(=O)Cn1c(=NC(=O)c2sc3ccccc3c2Cl)sc2cc(S(N)(=O)=O)ccc21 | inconclusive: 65.1%
CS(=O)(=O)N(CC(=O)Nc1ccc2c(c1)OCCO2)Cc1ccc(Cl)cc1 | inactive: -3.3%
CCOc1ccc(Cl)cc1CNCCCSc1ncccn1 | inconclusive: 78%
COc1cc(OC)cc(C(=O)Nc2ccc(-c3nc4ccccc4o3)c(O)c2)c1 | inconclusive: 57.9%
COC(=O)CCCn1nc(NC(=O)c2ccco2)cc1C | inconclusive: 59.4%
Cc1ccsc1/C=N/NC(=O)c1cccc(S(=O)(=O)Nc2ccccc2Cl)c1 | inconclusive: 76.8%
O=C(Nn1cnnc1)c1csc2ccccc12 | inactive: -11.1%
CC(C)Sc1nc2c(c(=O)n(C)c(=O)n2C)n1Cc1ccc(Cl)cc1 | inconclusive: 74.2%
